Test results from US11911551B2, “Method for treating drug intoxication” (ExThera Medical Corporation, priority 2016, dated 2024).
Some entries repeat one wording, which the source may state once for all of them.

Assay: Antibiotic-spiked blood passed through 1-mL minicartridge filled with heparinized media; plasma concentration before and after
Conditions: 2 mL spiked blood passed through heparinized-media minicartridge over 20 second; FIG. 3

Structure (SMILES) | concentration of drug in the plasma before and after contacting the adsorption media
CC(C)(O/N=C(\C(=O)N[C@@H]1C(=O)N2C(C(=O)[O-])=C(C[n+]3ccccc3)CS[C@H]12)c1csc(N)n1)C(=O)O [ceftazidime] | reduction in concentration
CCCCCCCCCC(=O)N[C@@H](Cc1c[nH]c2ccccc12)C(=O)N[C@H](CC(N)=O)C(=O)N[C@@H](CC(=O)O)C(=O)N[C@@H]1C(=O)NCC(=O)N[C@@H](CCCN)C(=O)N[C@@H](CC(=O)O)C(=O)N[C@H](C)C(=O)N[C@@H](CC(=O)O)C(=O)NCC(=O)N[C@H](CO)C(=O)N[C@@H]([C@H](C)CC(=O)O)C(=O)N[C@@H](CC(=O)c2ccccc2N)C(=O)O[C@@H]1C [daptomycin] | reduction in concentration
C[C@@H]1O[C@@H]1P(=O)(O)O [fosfomycin] | reduction in concentration
CC(=O)NC[C@H]1CN(c2ccc(N3CCOCC3)c(F)c2)C(=O)O1 [linezolid] | reduction in concentration
CN[C@H](CC(C)C)C(=O)N[C@H]1C(=O)N[C@@H](CC(N)=O)C(=O)N[C@H]2C(=O)N[C@H]3C(=O)N[C@H](C(=O)N[C@H](C(=O)O)c4cc(O)cc(O)c4-c4cc3ccc4O)[C@H](O)c3ccc(c(Cl)c3)Oc3cc2cc(c3O[C@@H]2O[C@H](CO)[C@@H](O)[C@H](O)[C@H]2O[C@H]2C[C@](C)(N)[C@H](O)[C@H](C)O2)Oc2ccc(cc2Cl)[C@H]1O [vancomycin] | reduction in concentration
